Primary screen of a compound library

Amino acid sequences for entries named in this document (tags omitted). Residues count along the entry.
UniProt P9WFT3, whole entry: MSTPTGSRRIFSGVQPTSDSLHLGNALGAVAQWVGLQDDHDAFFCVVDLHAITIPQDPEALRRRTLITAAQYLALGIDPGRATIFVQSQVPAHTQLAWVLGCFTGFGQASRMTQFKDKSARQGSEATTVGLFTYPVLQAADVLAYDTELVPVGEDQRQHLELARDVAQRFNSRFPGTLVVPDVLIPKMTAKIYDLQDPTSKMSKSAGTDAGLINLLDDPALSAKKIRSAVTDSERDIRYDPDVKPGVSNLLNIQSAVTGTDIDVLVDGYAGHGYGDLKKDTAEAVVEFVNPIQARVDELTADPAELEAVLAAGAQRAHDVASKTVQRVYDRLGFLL
UniProt P9WPC5, whole entry: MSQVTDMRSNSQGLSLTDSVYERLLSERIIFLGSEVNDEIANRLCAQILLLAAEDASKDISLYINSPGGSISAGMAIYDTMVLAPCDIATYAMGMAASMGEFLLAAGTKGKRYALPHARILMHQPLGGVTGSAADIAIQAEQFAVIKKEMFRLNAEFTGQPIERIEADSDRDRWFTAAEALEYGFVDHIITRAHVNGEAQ
UniProt P9WPC3, whole entry partner: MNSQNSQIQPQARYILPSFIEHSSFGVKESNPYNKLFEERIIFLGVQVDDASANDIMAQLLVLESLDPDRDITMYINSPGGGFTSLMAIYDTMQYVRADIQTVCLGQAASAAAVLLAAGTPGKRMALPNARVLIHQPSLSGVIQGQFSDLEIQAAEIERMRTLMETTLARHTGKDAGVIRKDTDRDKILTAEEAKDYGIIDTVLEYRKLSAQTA
UniProt Q4DA54, 1-478: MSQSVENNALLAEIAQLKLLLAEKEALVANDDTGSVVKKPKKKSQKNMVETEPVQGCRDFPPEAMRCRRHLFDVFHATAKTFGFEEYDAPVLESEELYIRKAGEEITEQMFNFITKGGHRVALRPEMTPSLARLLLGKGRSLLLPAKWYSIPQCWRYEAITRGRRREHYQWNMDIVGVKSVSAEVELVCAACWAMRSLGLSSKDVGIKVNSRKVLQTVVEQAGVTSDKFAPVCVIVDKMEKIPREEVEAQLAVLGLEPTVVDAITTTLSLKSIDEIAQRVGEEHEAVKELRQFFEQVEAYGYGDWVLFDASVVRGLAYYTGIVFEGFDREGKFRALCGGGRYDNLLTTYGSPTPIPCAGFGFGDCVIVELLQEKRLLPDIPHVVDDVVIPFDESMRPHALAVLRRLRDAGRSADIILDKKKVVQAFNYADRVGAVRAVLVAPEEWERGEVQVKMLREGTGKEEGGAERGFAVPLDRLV

Values are the deposited “Percent Effect”, in %.
The controls that fix the scale are not given in the record; negative values are as filed.
Compounds were drawn at random from those tested, without regard to their results.
A dash means the value is not listed here; it may have been measured.

MtTrpRS: 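Enzyme assay of tryptophanyl-tRNA synthetase; the read-out is not stated. Target: Tryptophan-tRNA ligase, Mycobacterium tuberculosis (UniProt P9WFT3). Compounds at 10 µM. Higher most likely means stronger inhibition; the record gives no direction and few retests gave an IC50. Of about 65,000 compounds tested this way, about 64 (0.098%) reached 50% or more in at least one test.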
ClpP1P2: 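Protease assay of ClpP1P2, read by the AMC dye that it sets free. Target: ClpP1P2, Mycobacterium tuberculosis (UniProt P9WPC5 and UniProt P9WPC3). Concentration: 50 µM. Higher reads as stronger inhibition, judged from the few compounds that gave an IC50. Most other retested compounds had strongly negative values. Of about 69,000 compounds tested this way, about 10 (0.015%) reached 50% or more in at least one test.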
TcHisRS: 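Enzyme assay of histidyl-tRNA synthetase; the read-out is not stated. Target: Histidine-tRNA ligase, Trypanosoma cruzi CL Brener (UniProt Q4DA54). Compounds at 30 µM. The record gives no direction; compounds that gave an IC50 in retests scored well above the rest, so higher reads as stronger inhibition. Size under these conditions: about 69,000 compounds, about 31 of them at 50% or above in at least one test.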

SMILES	MtTrpRS	ClpP1P2	TcHisRS
CC(=O)NC1Cc2ccc(S(=O)(=O)NCCNc3ccccn3)cc2C1 (stereo not drawn)	-5.708%	-16.8%	2.682%
CCOc1cc(C)nc(N2CCN(C(=O)c3cscn3)CC2)n1	-3.365%	-13.31%	3.509%
Cc1nn(-c2ccccc2)c(C)c1CNC(=O)NC1CC(=O)N(C)C1 (stereo not drawn)	-0.3458%	-20.12%	7.229%
Cc1cc(CNC(=O)NC(C)c2ccccc2)no1 (stereo not drawn)	4.581%	0.513%	8.929%
COCCN(C(=O)c1ccc(OC)cc1)c1ccc(C#N)cc1	10.19%	-0.7448%	3.922%
c1ccc(Oc2nccc3occc23)c(CN2CCCCC2)c1	0.7692%	-6.76%	11.11%
CC(=O)NCC(=O)N1Cc2cnc(CC(C)C)nc2C1	-1.881%	-20.01%	-5.797%
COCC1CCN(C(=O)c2cn(Cc3cccc(C(F)(F)F)c3)nn2)C1 (stereo not drawn)	2.68%	-14.6%	-2.41%
CC(C)C(=O)N1CCN(Cc2cc(-c3ccncc3)nn2C)CC1	1.923%	-6.382%	2.703%
CCCn1nc(-c2nc(Cc3ccc(OC)cc3)no2)ccc1=O	0.9336%	-0.3449%	3.448%
CC(=O)c1cc(C(=O)N2CCC3(CC2)Nc2ccccc2NC3=O)cs1	0.7971%	-3.044%	4.523%
COC[C@H]1CC[C@@H]2[C@@H](CCN2Cc2ccccn2)O1	0%	22.75%	5.882%
CCCOC1CCCN(C(=O)c2ccnc(N3CCN(C)CC3)c2)C1 (stereo not drawn)	-0.7048%	14.19%	-2.062%
CC(C)S(=O)(=O)CC(=O)NCC(Cc1ccc(F)cc1)C(N)=O (stereo not drawn)	3.522%	-11.24%	4.523%
NC(=O)CCNC(=O)Cc1cccc(I)c1	2.801%	-1.53%	10.34%
O=C(CCCc1ccccn1)NCC(O)c1ccccc1Cl (stereo not drawn)	2.436%	-7.44%	-2.469%
CC(C)N(C)Cc1cc(=O)n2c(n1)CN(C(=O)c1ccnnc1)CCC2	-	-3.178%	10%
CCN(CC)c1ccc(CNC(=O)c2cnc(C)cn2)cn1	6.743%	0.0224%	1.724%
CN1CCc2nnc(C3CCCN3S(=O)(=O)c3ccc(F)cc3)n2CC1 (stereo not drawn)	-9.177%	-26.38%	3.143%
CCc1nn(C)c(Cl)c1CN1C[C@@H](NC(=O)N(C)C)[C@H](C(C)C)C1	-2.142%	-5.644%	10.67%
CCCn1ncc(C2CC(=O)NCc3nc4sc(C)cn4c32)c1C (stereo not drawn)	-2.886%	-4.704%	7.303%
Cc1csc(CNC(=O)NC(C)c2ccc3c(c2)CCC(=O)N3)n1 (stereo not drawn)	1.16%	-19.34%	5.143%
Cn1cnc2c1C(COCC1CCOCC1)CN(C(=O)c1ccco1)C2 (stereo not drawn)	-5.514%	7.082%	5.911%
CN(Cc1cnn(C)c1)C(=O)Nc1cccnc1-n1cccn1	9.741%	12.38%	-0.5291%
O=C1COc2ccccc2N1CCCn1cnnn1	2.36%	-3.503%	-2.521%
Cc1cc(CN(C)C(=O)c2ccc(OCC(F)(F)F)nc2)no1	-5.066%	-16.93%	5.085%
Cc1cc(N2CCC(Cc3cccnc3)C2)ncn1 (stereo not drawn)	-1.698%	2.232%	6.923%
CC(C)n1cnnc1CN(C)Cc1cnc(-c2cccs2)nc1	-0.5623%	-0.9419%	7.447%
Cc1noc([C@]23COC[C@H]2CN(Cc2cc(C)on2)C3)n1	22.97%	14.71%	0%
COc1cccc(S(=O)(=O)CCN2CCN(CCO)CC2)c1	-2.033%	-10.11%	2.041%
Cc1cc(C[C@@H]2CCC[C@H]2NCc2cc(C)c(O)c(C)c2)on1	0.9197%	-2.153%	3.784%
CC(C)OC(=O)N1CCC(Cc2ccc(C(=O)O)cc2)C1 (stereo not drawn)	2.429%	5.806%	-0.8%
COCCN1C(=O)C[C@H]2[C@H]1CCN2Cc1ccccc1	-3.909%	-0.8702%	1.961%
Cc1nc(O)cc(C2CCN(Cc3cccc(F)c3F)C2)n1 (stereo not drawn)	1.087%	5.53%	1.622%
CCC(Nc1nc(C)nc2onc(C)c12)c1nc(C)c(C)s1 (stereo not drawn)	3.473%	-39.63%	0.9662%
O=C(Oc1ccccc1)N1CCC(CNS(=O)(=O)c2cccnc2)CC1	-2.918%	-1.597%	-0.4878%
CCc1cccc(OC2CN(C(=O)[C@@H](N)CCSC)C2)c1	-3.757%	5.586%	11.23%
Cc1nc(C)n(CC2CN(Cc3ccccc3C#N)CCO2)n1 (stereo not drawn)	-2.416%	-10.17%	2.89%
CN1CCOCC2(CCCN(C(=O)c3ccccc3F)C2)C1 (stereo not drawn)	0.9931%	8.983%	0.8403%
Cc1cccnc1[C@H](C)NC(=O)Cc1cc2c(cc1Cl)OCCO2	0.4566%	14.64%	-3.797%
Nc1cc2c(nn1)CCN(C(=O)CCc1ccc3c(c1)OCO3)C2	-0.9336%	-8.174%	12.07%
Cn1cc(N2CC3(COCCN(Cc4ccccn4)C3)OCC2=O)cn1 (stereo not drawn)	0.5231%	19.78%	4.132%
Cc1nc(CCCC(=O)Nc2cccc(N3CCNC3=O)c2)cs1	-5.575%	-6.232%	1.042%
Cc1nc(N(C)C)ncc1C(=O)N[C@H]1Cc2ccccc2[C@@H]1N	10.37%	-4.988%	6.438%
Cc1noc(C)c1CCC(=O)N1CCCN(CC(N)=O)CC1	0.1883%	-17.37%	5.325%
CN1C[C@@H](c2cccc(F)c2)[C@H]2[C@H]1CCCCCN2C(=O)C1CC1	-5.39%	-6.244%	7.576%
CC(C)c1nn(C)c(N(C)C)c1CNC1CCC(O)CC1 (stereo not drawn)	2.166%	-7.557%	10.59%
CN(C)c1nc(NCCc2ccnn2C)ncc1F	1.586%	-7.27%	1.288%
CC(C)n1nc(CN(C)C)c2c1CN(CC1CC1)CC2	-1.187%	1.76%	6.329%
COc1ccc(CN2CCC3(CC2)CCN(c2cnn(C)c2)C3=O)cc1	-2.674%	2.916%	14.29%
O=C(NCc1ccccc1)[C@@H]1Cc2[nH]cnc2CN1CC1CC1	-4.142%	-19.39%	4.95%
c1cc2nccc(CC3CCCN(Cc4ncc[nH]4)CC3)c2cn1 (stereo not drawn)	-0.2508%	4.685%	8.108%
Cc1nc(N(C)C)nc(NCCc2cnccn2)c1C	3.524%	16.86%	10%
CC(C)COCC1CN(C(=O)c2cscn2)Cc2ncn(C)c21 (stereo not drawn)	-	-3.464%	7.735%
CCc1noc(C(C)N2CCN(C(=O)CN3CCOCC3)CC2)n1 (stereo not drawn)	-4.589%	-19.82%	6.78%
CN(CC1=CCCN(CCc2ccccn2)C1)C(=O)c1ccco1	-0.6173%	-4.356%	5.952%
CCCc1cc(C(=O)N2CCC3(CCCN(CCO)C3=O)C2)cs1 (stereo not drawn)	-9.513%	-18.02%	1.093%
CC(C)c1nc(CN2CCOC(Cn3cncn3)C2)no1 (stereo not drawn)	-4.191%	13.64%	0.5848%
CCN(CC1CCCO1)C(=O)Nc1cccc(Cl)c1OC (stereo not drawn)	18.54%	9.314%	-1.163%
O=C1NCCCc2[nH]c(Cc3cccc(F)c3)nc21	2.744%	16.23%	12.22%
CNS(=O)(=O)CC(=O)N1CCCc2cc(Br)ccc21	3.342%	-3.372%	0.6135%
O=C(O)c1cc(S(=O)(=O)Nc2ccccc2)cc2c1OCCO2	4.984%	-3.405%	1.69%
O=C1CCSCC(C(=O)N2CCCC2)N1 (stereo not drawn)	0.2138%	-15.38%	4.132%
CC(CN1CCOC1=O)NC(=O)c1cccc(C#N)c1 (stereo not drawn)	-2.922%	-1.187%	-4.348%
Cc1nc[nH]c1CN1CCc2nc3scc(C)c3c(=O)n2CC1	0.5217%	-3%	0.7463%
Cc1c(C(=O)N2CCCC(C(=O)c3nccn3C)C2)c[nH]c(=O)c1C#N (stereo not drawn)	-2.931%	6.76%	2.4%
CN1CCN(CC2CCN(C(=O)CCC3CCCCC3)CC2)CC1	-2.001%	0.1298%	5.83%
CCOc1ccccc1N(C)C(=O)c1ccc(Cl)cn1	5.369%	-6.428%	7.447%

Some entries from above, unchanged:

SMILES	MtTrpRS	ClpP1P2	TcHisRS
Cc1nc(N(C)C)nc(NCCc2cnccn2)c1C	3.524%	16.86%	10%
CCOc1ccccc1N(C)C(=O)c1ccc(Cl)cn1	5.369%	-6.428%	7.447%
CN(CC1=CCCN(CCc2ccccn2)C1)C(=O)c1ccco1	-0.6173%	-4.356%	5.952%
Cc1nc(C)n(CC2CN(Cc3ccccc3C#N)CCO2)n1 (stereo not drawn)	-2.416%	-10.17%	2.89%
CC(C)S(=O)(=O)CC(=O)NCC(Cc1ccc(F)cc1)C(N)=O (stereo not drawn)	3.522%	-11.24%	4.523%
CC(C)OC(=O)N1CCC(Cc2ccc(C(=O)O)cc2)C1 (stereo not drawn)	2.429%	5.806%	-0.8%
Cc1nc(O)cc(C2CCN(Cc3cccc(F)c3F)C2)n1 (stereo not drawn)	1.087%	5.53%	1.622%
Cc1cc(N2CCC(Cc3cccnc3)C2)ncn1 (stereo not drawn)	-1.698%	2.232%	6.923%

From ChEMBL document CHEMBL3988442, “University of Dundee, Small-Polar-MMV Screening Library” (2021).